From paper PMC9499541, “Ait1 regulates TORC1 signaling and localization in budding yeast” (eLife, 2022)

Sequences of proteins named here, by UniProt entry; tags and fusion partners are left off.
UniProt P38873: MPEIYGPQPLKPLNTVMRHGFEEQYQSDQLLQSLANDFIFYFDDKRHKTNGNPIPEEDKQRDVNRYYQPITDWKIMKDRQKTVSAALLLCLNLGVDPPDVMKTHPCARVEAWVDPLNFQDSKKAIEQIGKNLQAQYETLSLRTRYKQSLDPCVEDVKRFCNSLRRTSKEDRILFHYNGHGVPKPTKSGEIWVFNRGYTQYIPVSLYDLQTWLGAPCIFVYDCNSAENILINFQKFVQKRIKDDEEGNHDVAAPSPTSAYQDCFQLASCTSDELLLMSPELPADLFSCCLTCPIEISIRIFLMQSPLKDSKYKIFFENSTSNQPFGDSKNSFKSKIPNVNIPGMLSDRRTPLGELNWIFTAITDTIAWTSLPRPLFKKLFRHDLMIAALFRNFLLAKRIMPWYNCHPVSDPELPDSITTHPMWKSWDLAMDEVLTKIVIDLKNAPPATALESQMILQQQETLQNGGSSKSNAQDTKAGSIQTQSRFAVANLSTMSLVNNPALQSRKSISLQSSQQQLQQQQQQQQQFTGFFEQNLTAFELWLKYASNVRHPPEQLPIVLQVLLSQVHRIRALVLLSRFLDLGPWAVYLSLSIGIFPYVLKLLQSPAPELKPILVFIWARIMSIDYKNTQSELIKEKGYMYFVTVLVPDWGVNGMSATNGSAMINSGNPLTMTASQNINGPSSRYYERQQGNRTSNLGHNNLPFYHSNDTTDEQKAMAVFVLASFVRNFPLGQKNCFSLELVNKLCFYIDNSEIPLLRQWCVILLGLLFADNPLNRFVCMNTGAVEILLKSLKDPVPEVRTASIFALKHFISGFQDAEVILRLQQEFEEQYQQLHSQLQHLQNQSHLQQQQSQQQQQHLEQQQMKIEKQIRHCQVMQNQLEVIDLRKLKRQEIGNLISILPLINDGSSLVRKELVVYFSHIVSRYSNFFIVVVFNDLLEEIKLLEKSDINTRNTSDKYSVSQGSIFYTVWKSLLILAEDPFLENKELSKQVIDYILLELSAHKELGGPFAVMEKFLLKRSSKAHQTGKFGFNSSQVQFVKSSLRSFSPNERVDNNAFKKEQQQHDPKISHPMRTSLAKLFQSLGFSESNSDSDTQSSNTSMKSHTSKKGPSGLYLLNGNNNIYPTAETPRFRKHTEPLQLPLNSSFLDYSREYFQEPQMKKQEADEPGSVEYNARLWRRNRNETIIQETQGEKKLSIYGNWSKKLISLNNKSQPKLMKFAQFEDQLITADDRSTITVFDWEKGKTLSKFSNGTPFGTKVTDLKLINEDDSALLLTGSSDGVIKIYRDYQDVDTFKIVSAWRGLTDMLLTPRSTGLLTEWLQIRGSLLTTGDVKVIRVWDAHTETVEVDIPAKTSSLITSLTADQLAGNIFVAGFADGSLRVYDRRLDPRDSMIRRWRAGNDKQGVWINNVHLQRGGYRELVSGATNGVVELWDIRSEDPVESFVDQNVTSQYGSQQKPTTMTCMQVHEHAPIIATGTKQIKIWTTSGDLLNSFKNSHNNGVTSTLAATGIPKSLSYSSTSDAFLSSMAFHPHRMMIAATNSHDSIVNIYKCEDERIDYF
UniProt P35169: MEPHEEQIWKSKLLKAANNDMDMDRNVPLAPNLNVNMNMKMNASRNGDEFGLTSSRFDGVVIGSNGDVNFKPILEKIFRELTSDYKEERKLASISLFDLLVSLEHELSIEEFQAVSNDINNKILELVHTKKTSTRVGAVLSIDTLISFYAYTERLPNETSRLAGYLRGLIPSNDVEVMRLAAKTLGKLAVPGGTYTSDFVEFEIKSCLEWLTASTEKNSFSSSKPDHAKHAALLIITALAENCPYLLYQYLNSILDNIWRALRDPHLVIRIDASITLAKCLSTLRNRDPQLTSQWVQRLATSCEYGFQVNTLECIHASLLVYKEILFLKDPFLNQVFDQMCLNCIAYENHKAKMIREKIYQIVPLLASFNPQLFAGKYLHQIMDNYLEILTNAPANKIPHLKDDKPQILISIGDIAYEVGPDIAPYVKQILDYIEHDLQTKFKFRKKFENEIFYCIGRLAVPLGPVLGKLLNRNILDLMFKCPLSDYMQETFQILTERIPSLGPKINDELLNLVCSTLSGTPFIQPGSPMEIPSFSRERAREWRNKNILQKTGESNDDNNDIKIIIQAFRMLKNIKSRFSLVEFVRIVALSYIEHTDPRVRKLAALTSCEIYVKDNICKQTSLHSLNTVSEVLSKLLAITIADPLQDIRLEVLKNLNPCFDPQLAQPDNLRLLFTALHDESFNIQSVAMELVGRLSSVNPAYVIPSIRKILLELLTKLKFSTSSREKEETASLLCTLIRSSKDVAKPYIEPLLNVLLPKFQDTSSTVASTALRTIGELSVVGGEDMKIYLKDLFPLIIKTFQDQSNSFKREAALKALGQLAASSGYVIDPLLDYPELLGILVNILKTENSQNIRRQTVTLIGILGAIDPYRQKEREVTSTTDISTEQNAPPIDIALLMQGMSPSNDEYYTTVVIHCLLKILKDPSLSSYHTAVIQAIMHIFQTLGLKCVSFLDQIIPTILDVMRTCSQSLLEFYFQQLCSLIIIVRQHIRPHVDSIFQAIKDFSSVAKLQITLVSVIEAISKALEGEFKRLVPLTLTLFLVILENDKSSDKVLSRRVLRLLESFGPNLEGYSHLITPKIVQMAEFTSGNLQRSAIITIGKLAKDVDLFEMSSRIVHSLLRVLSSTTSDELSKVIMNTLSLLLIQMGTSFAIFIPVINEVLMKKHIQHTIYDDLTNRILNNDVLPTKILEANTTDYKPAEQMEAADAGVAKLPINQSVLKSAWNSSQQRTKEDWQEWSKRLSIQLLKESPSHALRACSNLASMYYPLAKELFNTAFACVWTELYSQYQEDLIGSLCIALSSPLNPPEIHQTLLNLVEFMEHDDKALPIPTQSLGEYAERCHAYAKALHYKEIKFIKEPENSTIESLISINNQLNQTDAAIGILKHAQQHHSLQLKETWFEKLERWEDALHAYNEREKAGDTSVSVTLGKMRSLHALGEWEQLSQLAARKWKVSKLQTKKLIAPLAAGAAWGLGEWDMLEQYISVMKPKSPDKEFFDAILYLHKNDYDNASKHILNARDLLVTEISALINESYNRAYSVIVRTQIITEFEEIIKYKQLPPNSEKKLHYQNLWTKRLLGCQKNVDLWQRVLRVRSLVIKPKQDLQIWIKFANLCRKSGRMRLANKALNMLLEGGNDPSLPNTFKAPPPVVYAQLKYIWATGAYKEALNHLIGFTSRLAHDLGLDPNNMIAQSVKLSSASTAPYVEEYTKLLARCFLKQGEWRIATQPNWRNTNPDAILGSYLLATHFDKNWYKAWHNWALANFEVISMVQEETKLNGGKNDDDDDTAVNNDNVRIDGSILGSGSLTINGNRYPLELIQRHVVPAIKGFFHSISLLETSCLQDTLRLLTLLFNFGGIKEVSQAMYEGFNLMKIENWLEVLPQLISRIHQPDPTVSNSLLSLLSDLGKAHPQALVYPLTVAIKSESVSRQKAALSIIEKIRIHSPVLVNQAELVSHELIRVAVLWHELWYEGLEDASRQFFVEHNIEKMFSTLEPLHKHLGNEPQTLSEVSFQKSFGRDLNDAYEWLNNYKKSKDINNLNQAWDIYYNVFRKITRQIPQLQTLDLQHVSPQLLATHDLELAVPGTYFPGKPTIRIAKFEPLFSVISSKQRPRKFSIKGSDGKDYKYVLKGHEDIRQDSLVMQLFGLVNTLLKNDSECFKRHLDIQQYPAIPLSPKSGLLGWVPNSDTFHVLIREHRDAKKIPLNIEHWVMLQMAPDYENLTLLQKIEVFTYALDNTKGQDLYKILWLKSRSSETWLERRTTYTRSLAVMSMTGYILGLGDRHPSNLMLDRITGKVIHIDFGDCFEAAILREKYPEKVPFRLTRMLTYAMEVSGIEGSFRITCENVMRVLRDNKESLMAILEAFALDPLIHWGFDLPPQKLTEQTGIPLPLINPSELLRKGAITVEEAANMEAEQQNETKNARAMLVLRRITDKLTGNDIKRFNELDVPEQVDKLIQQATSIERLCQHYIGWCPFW

T1: GFP-Ait1 (S. cerevisiae) (UniProt Q12301)
T1 sequence: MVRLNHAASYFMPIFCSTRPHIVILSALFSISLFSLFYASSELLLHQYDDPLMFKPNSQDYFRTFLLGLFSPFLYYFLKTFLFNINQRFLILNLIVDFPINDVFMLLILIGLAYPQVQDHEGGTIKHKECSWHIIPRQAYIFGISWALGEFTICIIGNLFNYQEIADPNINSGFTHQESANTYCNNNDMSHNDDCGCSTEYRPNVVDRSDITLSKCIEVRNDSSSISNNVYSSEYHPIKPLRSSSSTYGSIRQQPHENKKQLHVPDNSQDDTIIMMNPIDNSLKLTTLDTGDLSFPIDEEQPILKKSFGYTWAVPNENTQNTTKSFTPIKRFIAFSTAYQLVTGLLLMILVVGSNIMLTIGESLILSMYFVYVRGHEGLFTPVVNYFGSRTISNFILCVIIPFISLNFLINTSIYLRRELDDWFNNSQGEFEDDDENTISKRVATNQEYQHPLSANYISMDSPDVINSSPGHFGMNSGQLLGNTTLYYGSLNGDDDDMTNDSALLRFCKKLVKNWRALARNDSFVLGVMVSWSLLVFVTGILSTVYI

B1: Gtr2 (protein, UniProt P53290 1-341)
chain: MSLEATDSKAMVLLMGVRRCGKSSICKVVFHNMQPLDTLYLESTSNPSLEHFSTLIDLAVMELPGQLNYFEPSYDSERLFKSVGALVYVIDSQDEYINAITNLAMIIEYAYKVNPSINIEVLIHKVDGLSEDFKVDAQRDIMQRTGEELLELGLDGVQVSFYLTSIFDHSIYEAFSRIVQKLIPELSFLENMLDNLIQHSKIEKAFLFDVNSKIYVSTDSNPVDIQMYEVCSEFIDVTIDLFDLYKAPVLRNSQKSSDKDNVINPRNELQNVSQLANGVIIYLRQMIRGLALVAIIRPNGTDMESCLTVADYNIDIFKKGLEDIWANARASQAKNSIEDDV
B2: Ego1 (protein, UniProt Q02205 1-184)
chain: MGAVLSCCRNHSGEENEALLREQQAGYGSQGNANDEYDAEQMRLKEHEHEQKLLAREQELRDIVANTNDKLIDISMINNSGIVIQGTDLQEALDKRQQEEGGDSREDERSAGDDNLSGHSVPSSGSAQATTHQTAPRTNTFTLLTSPDSAKISKEQLKKLHSNILNEIFSQSQVNKPGPLTVPF
B3: Npr2 (protein, UniProt P39923 1-615)
chain: MLSYFQGFVPIHTIFYSVFHPTEGSKIKYEFPPNNLKNHGINFNTFKNYIIPKPILCHKLITFKYGTYRIVCYPVTINSPIYARNFFSFNFVFVFPYDCETSPYEPAITRLGKMFKVLEEQNQLLSKSERDPVFFDLKVLENSTTTPSTAGPSSTPNPSSNTTPTHPTSEKDTKDMRSSRYSDLIKDLGLPQSAFSIQDLLMRIFQDLNNYSECLIPIDEGNAVDIKIFPLLRPPTTCVSLEDVPLSSVNLKKIIDVNWDPTMMSIVPYIDGLNSIAKISKLSNSDPGLVIECIRHLIYYKCVTLSDIFQFSNIYAPSSLIRNFLTDPLMASDCQSYVTFPEVSKISNLPLNKSLGSGDQDSPSFSVRRKSKSSSIPSNPDSRTTSFSSTSRVSQNSSLNSSFSSIYKDWRQSQTSCSSSNIHVINNRNRFLPTRSCLFDLYRSLSQGQTLKTWYESKYMILKENNIDIRRFITFGLEKRIIYRCYSFPVMINAGSREPKEMTPIITKDLVNNDKLLEKRNHNHLLSATGSRNTAQSGNLKPERPSKVSFEMQRVSSLATGKSTMPKLSDEEEGILEESIRNAETFDKICVLLSKPKLEVESYLNELGEFKVINS
B4: GFP-Ait1 (natural protein, S. cerevisiae, UniProt Q12301 1-547, looked up)
chain: T1 sequence
notes: Ait1 (Ydl180w), GPCR-like protein of the vacuolar membrane, S. cerevisiae; The strain list is in Supplementary file 3; source: S. cerevisiae (W303) strain carrying GFP-Ait1, in lysate; not shown: GFP, N-terminal, kept

Columns and labels:
GFP-Ait1 (S. cerevisiae) = target: T1, GFP-Ait1 (S. cerevisiae); test: affinity purification with mass spectrometry; GFP-Ait1 captured on anti-GFP beads from lysate treated with DSP crosslinker and digitonin, as for Kog1; four experiments
[1] = target: Kog1-FLAG (S. cerevisiae) (UniProt P38873); test: affinity purification with mass spectrometry; Kog1-FLAG captured on anti-FLAG beads from lysate treated with the cleavable crosslinker DSP and 1% digitonin; mock IP from a Kog1-HA strain; 11 experiments in nine conditions (log phase, stress and starvation); crosslinks broken before mass …

| Molecule | binding (GFP-Ait1 (S. cerevisiae)) | binding [1] |
| --- | --- | --- |
| Kog1 (from UniProt P38873 1-1557) | binds |  |
| Tor1 (from UniProt P35169 1-2470) | binds | binds |
| B1 |  | binds |
| B2 |  | binds |
| B3 |  | binds |
| B4 |  | binds |

No constants are given. Whether binding was seen depends on the method and setting. In cells and extracts the contact can be indirect. These calls come from enrichment with a bait or labelling near it, and not all partners need be listed. For some of these results: Sequences can lack the tags named with a protein.
